Laboratory results from PubChem BioAssay AID624291 (National Center for Advancing Translational Sciences (NCATS), 2012).
The whole screen tested about 350,000 compounds, of which about 220 (0.063%) were called active. The inconclusive results got no clear call from the source; some entries with a clear call stand among them for comparison. Calls come from the whole dose curve; as a rule, active = well fitted activation curve with a large enough effect; inconclusive = small, poorly fitted or top-dose-only effect; inactive = no such curve, though single readings can be large or run the other way. Potencies beside an inconclusive call are fits to weak or partial responses and may not hold up.

assay: qHTS for Activators of Integrin-Mediated Alleviation for Muscular Dystrophy; settings: alpha7betagal myoblasts, beta-gal FDG fluorescence, 48 h; activation: at 38.3 µM (top of the series); note: nearly all actives have a fitted effect of over 60% in size;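 for activation: 100% = response of the positive control SU9516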
In short: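 Alpha7betagal+/- myoblasts (passage 13) were plated 16-24 hr, then exposed to compounds (1:260 dilution of DMSO stock) for 48 hours at 37C. After MPER lysis, β-galactosidase reporter activity was read as FDG fluorescence (ex 480/em 540) after 30 minutes.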
Potency is the fitted concentration of half-maximal effect.

| SMILES | Potency | activation |
| --- | --- | --- |
| COc1ccc(NC(=O)c2ccc(C)cc2)c[n+]1[O-] | inconclusive: 11.2 µM [activator, partial curve] | – |
| CCNc1nc(NC(C)(C)C)nc(SC(C(C)=O)C(C)=O)n1 | inactive | – |
| Cc1cc(C)c2nc(NC(=O)c3cc(C)on3)sc2c1 | inactive | – |
| CC(Cc1ccco1)NC(=O)c1ccc(C(F)(F)F)cc1 (stereo not given) | inconclusive: 10 µM [activator, partial curve, poor fit] | – |
| Cc1cc(=O)n(C(C)Cc2ccccc2)n1C(C)Cc1ccccc1 (stereo not given) | inactive | – |
| CCOC(=O)Cc1c(C)nc2c(-c3cccc(Br)c3)c[nH]n2c1=O | inconclusive: 5.01 µM [activator, single point] | – |
| COC(=O)C(=O)/C=C(\O)c1ccc(C)cc1 | inconclusive: 5.01 µM [activator, single point] | – |
| O=C(NN1CC(C(=O)OCc2ccc(Br)cc2)CC1=O)c1ccccc1 (stereo not given) | inactive | – |
| CCOc1ccc(Cc2c(O)nc(SC)[nH]c2=O)cc1 | inactive | – |
| Cc1ccc(-n2ncc(-c3nn[nH]n3)c2N)cc1 | inconclusive: 10 µM [activator, partial curve, poor fit] | – |
| CCCNC(=O)COC(=O)c1ccc(-c2ccccc2)cc1 | inactive | – |
| CC(C)Cc1nnc(NC(=O)CCC(=O)N2CCN(Cc3ccc(F)cc3)CC2)s1 | inconclusive: 5.01 µM [activator, single point] | – |
| O=C(Nc1nc(COc2ccccc2)cs1)c1ccccc1F | inconclusive: 1.41 µM [activator, partial curve, poor fit] | – |
| CC1(C)CC(=O)C(=Cc2cn(-c3ccccc3)nc2-c2ccc(Cl)cc2)C(=O)C1 | inconclusive: 2 µM [activator, full curve, poor fit] | – |
| Cc1cc(C)c(NC(=O)CNC(=O)COC(=O)Cc2cccs2)c(C)c1 | inconclusive: 11.2 µM [activator, partial curve, poor fit] | – |
| Cc1c(C(=O)N2CCCC2)c(S(=O)(=O)NCCc2ccccc2)c(C)n1C | – | inconclusive: 44.9% [activator] |
| Nc1c2c(nc3ccccc13)CCC2 | inconclusive: 3.55 µM [activator, single point] | – |
| Cc1c(C)n(C)c2ccc(C(=O)NCCCN3CCOCC3)cc12 | inconclusive: 14.1 µM [activator, single point] | – |
| CC(C)C(OC(=O)c1ccc(Cl)nc1)C(=O)NC1CCCCC1 (stereo not given) | inconclusive: 12.6 µM [activator, single point] | – |
| CCNC(=O)C(CC(C)C)NC(=O)C(CO)NC(=O)C1CCC(=O)N1 (stereo not given) | inconclusive: 0.501 µM [activator, partial curve, poor fit] | – |

Rewritten in CSV form: entries from further up.
SMILES,Potency,activation
CC(Cc1ccco1)NC(=O)c1ccc(C(F)(F)F)cc1 (stereo not given),"inconclusive: 10 µM [activator, partial curve, poor fit]",–
Cc1cc(=O)n(C(C)Cc2ccccc2)n1C(C)Cc1ccccc1 (stereo not given),inactive,–
